These are yes or no findings as the source states them, for the method shown. Some entries that bind do so weakly or less than the wild type.
Legend:
[1] = molecular target: cyno MerTK extracellular domain (ECD), recombinant (cynomolgus monkey); experiment: SPR, Carterra LSA
[2] = molecular target: human MerTK extracellular domain (ECD), recombinant (human) (UniProt Q12866); experiment: SPR, Carterra LSA
[3] = molecular target: human MerTK endogenously expressed on cells (SK-MEL-5 cells; human macrophages) (human) (UniProt Q12866); experiment: flow cytometry on SK-MEL-5 cells
[4] = molecular target: human MerTK endogenously expressed on cells (SK-MEL-5 cells; human macrophages) (human) (UniProt Q12866); experiment: flow cytometry on SK-MEL-5 cells (endogenous human MerTK), APC anti-human kappa detection, MFI
[5] = molecular target: Recombinant human MerTK human Fc Chimera protein (R&D systems, Cat #391-MR-100) (human) (UniProt Q12866); experiment: competition ELISA: His-tagged Gas6 (3 ug/ml) binding to captured human MerTK-Fc, anti-His-HRP detection; blocked ligand Gas6

By UniProt entry, the sequences of proteins in these tests, tags left out. Where a name states a change or a piece, a line headed by the entry shows the natural chain unless it says otherwise.
UniProt Q12866: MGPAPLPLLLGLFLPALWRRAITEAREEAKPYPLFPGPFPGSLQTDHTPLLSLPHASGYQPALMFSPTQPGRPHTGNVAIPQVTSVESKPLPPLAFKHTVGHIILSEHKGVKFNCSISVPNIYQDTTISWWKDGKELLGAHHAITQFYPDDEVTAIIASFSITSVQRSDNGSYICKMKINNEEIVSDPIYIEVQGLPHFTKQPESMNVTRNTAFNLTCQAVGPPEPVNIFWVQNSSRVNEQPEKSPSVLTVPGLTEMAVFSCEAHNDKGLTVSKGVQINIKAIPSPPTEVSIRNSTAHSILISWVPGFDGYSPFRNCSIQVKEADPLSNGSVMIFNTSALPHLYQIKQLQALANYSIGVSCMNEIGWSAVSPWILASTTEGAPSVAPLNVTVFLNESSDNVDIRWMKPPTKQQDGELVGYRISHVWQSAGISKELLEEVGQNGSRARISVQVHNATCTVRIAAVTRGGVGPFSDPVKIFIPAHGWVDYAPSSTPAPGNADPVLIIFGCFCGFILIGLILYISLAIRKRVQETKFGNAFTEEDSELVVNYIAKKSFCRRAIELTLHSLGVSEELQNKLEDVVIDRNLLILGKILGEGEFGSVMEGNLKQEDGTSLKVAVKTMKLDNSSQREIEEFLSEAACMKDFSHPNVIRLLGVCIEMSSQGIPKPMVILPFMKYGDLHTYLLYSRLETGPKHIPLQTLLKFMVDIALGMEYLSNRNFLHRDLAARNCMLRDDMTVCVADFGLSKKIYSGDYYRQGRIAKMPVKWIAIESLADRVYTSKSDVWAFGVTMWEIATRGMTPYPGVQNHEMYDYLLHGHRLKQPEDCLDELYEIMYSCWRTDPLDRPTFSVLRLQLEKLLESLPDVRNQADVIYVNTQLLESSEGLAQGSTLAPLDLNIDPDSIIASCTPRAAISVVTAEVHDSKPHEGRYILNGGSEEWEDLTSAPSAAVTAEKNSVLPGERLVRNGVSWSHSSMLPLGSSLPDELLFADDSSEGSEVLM

Measured: binding

B1: MTK-16 (antibody, human IgG1, V domains shown)
VH: LIQLVQSGPELKKPGETVKISCKASGYTFTNHGMNWVKQDPGKGLKWMGWINTYTGEPTYADDFKGRFVFSMETSASAAFLQINNLKNEDTATYFCARKGVTAARYFDYWGQGTTLTVSS
VL: DIVMTQSPKFMSTSVGDRVSITCKASQNVRTAVAWYKKKPGQSPKALINLASNRHTGVPDRFTGSGSGTDFTLTISNVQSEDLADYFCLQHWNYPLTFGGGTKLEIK
binds: [1] | [2] | [3] | [4] | [5]

B2: MTK-27 (antibody, human IgG1, V domains shown)
VH: EVQLQQSGTELVRPGASVKLSCTASGFNIKDDYMHWVQQRPEQGLEWIGWIDPENGNTEYASKFQGKATITADASSNTAYLQLSSLTSEDTAVYYCSTLFSNYFDYWGQGTTLTVSS
VL: DIVMTQSQKFMSTSVGDRVSITCKASQNVRTSVAWYQQKPGQSPKALIYLASNRHTGVPDRFTGSGSGTDFTLTISNVRSEDLADYFCLQHWNYPYTFGGGTKLEIK
binds: [1] | [2]
